Some of the results follow.
Key:
Test in all cases: glycan array binding signal (z-score within array); higher = stronger binding
Conditions in all cases: glycan notation: IUPAC condensed, linker removed
[1] = biological target: Fuc(a1-2)[Gal(a1-3)]Gal(b1-3)GlcNAc(b1-6)GalNAc
Method in brief: (§1)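 Negative Z-scores can be read as non-binding. The Z-score is calculated within each array and then averaged across arrays of one protein sequence at different concentrations or buffers and across linkers. Arrays, 3228 in all, were curated from the Consortium for Functional Glycomics database and kept only where the protein sequence was available.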

[2] = biological target: Fuc(a1-2)[Gal(a1-3)]Gal(b1-4)Glc
Method in brief: as §1

[3] = biological target: Fuc(a1-2)[Gal(a1-3)]Gal(b1-4)GlcNAc
Method in brief: as §1

[4] = biological target: Fuc(a1-2)[Gal(a1-3)]Gal(b1-4)GlcNAc(b1-2)Man
Method in brief: as §1

[5] = biological target: Fuc(a1-2)[Gal(a1-3)]Gal(b1-4)GlcNAc(b1-2)Man(a1-3)[Fuc(a1-2)[Gal(a1-3)]Gal(b1-4)GlcNAc(b1-2)Man(a1-6)]Man(b1-4)GlcNAc(b1-4)GlcNAc
Method in brief: as §1

[6] = biological target: Fuc(a1-2)[Gal(a1-3)]Gal(b1-4)GlcNAc(b1-2)Man(a1-3)[Fuc(a1-2)[Gal(a1-3)]Gal(b1-4)GlcNAc(b1-2)Man(a1-6)]Man(b1-4)GlcNAc(b1-4)[Fuc(a1-6)]GlcNAc
Method in brief: as §1

[7] = biological target: Fuc(a1-2)[Gal(a1-3)]Gal(b1-4)GlcNAc(b1-3)GalNAc
Method in brief: as §1

[8] = biological target: Fuc(a1-2)[Gal(a1-3)]Gal(b1-4)GlcNAc(b1-3)[Fuc(a1-2)[Gal(a1-3)]Gal(b1-4)GlcNAc(b1-6)]GalNAc
Method in brief: as §1

[9] = biological target: Fuc(a1-2)[Gal(a1-3)]Gal(b1-4)GlcNAc(b1-6)GalNAc
Method in brief: as §1

[10] = biological target: Fuc(a1-2)[Gal(a1-3)]Gal(b1-4)[Fuc(a1-3)]Glc
Method in brief: as §1

[11] = biological target: Fuc(a1-2)[Gal(a1-3)]Gal(b1-4)[Fuc(a1-3)]GlcNAc
Method in brief: as §1

[12] = biological target: Fuc(a1-2)[Gal(a1-3)]Gal(b1-4)[Fuc(a1-3)]GlcNAc(b1-3)GalNAc
Method in brief: as §1

[13] = biological target: Fuc(a1-2)[Gal(a1-4)]Gal(b1-4)GlcNAc
Method in brief: as §1

[14] = biological target: Fuc(a1-2)[GalNAc(a1-3)]Gal
Method in brief: as §1

[15] = biological target: Fuc(a1-2)[GalNAc(a1-3)]Gal(b1-3)GalNAc(a1-3)[Fuc(a1-2)]Gal(b1-4)GlcNAc
Method in brief: as §1

[16] = biological target: Fuc(a1-2)[GalNAc(a1-3)]Gal(b1-3)GalNAc(b1-3)Gal(a1-4)Gal(b1-4)Glc
Method in brief: as §1

[17] = biological target: Fuc(a1-2)[GalNAc(a1-3)]Gal(b1-3)GlcNAc
Method in brief: as §1

[18] = biological target: Fuc(a1-2)[GalNAc(a1-3)]Gal(b1-3)GlcNAc(b1-2)Man(a1-3)[Fuc(a1-2)[GalNAc(a1-3)]Gal(b1-3)GlcNAc(b1-2)Man(a1-6)]Man(b1-4)GlcNAc(b1-4)GlcNAc
Method in brief: as §1

[19] = biological target: Fuc(a1-2)[GalNAc(a1-3)]Gal(b1-3)GlcNAc(b1-2)Man(a1-3)[Fuc(a1-2)[GalNAc(a1-3)]Gal(b1-3)GlcNAc(b1-2)Man(a1-6)]Man(b1-4)GlcNAc(b1-4)[Fuc(a1-6)]GlcNAc
Method in brief: as §1

[20] = biological target: Fuc(a1-2)[GalNAc(a1-3)]Gal(b1-3)GlcNAc(b1-3)GalNAc
Method in brief: as §1

[21] = biological target: Fuc(a1-2)[GalNAc(a1-3)]Gal(b1-3)GlcNAc(b1-6)GalNAc
Method in brief: as §1

[22] = biological target: Fuc(a1-2)[GalNAc(a1-3)]Gal(b1-4)Glc
Method in brief: as §1

[23] = biological target: Fuc(a1-2)[GalNAc(a1-3)]Gal(b1-4)GlcNAc
Method in brief: as §1

[24] = biological target: Fuc(a1-2)[GalNAc(a1-3)]Gal(b1-4)GlcNAc(b1-2)Man
Method in brief: as §1

[25] = biological target: Fuc(a1-2)[GalNAc(a1-3)]Gal(b1-4)GlcNAc(b1-2)Man(a1-3)[Fuc(a1-2)[GalNAc(a1-3)]Gal(b1-4)GlcNAc(b1-2)Man(a1-6)]Man(b1-4)GlcNAc(b1-4)GlcNAc
Method in brief: as §1

[26] = biological target: Fuc(a1-2)[GalNAc(a1-3)]Gal(b1-4)GlcNAc(b1-2)Man(a1-3)[Fuc(a1-2)[GalNAc(a1-3)]Gal(b1-4)GlcNAc(b1-2)Man(a1-6)]Man(b1-4)GlcNAc(b1-4)[Fuc(a1-6)]GlcNAc
Method in brief: as §1

[27] = biological target: Fuc(a1-2)[GalNAc(a1-3)]Gal(b1-4)GlcNAc(b1-3)Gal(b1-4)GlcNAc
Method in brief: as §1

[28] = biological target: Fuc(a1-2)[GalNAc(a1-3)]Gal(b1-4)GlcNAc(b1-3)Gal(b1-4)GlcNAc(b1-3)Gal(b1-4)GlcNAc
Method in brief: as §1

[29] = biological target: Fuc(a1-2)[GalNAc(a1-3)]Gal(b1-4)GlcNAc(b1-3)GalNAc
Method in brief: as §1

[30] = biological target: Fuc(a1-2)[GalNAc(a1-3)]Gal(b1-4)GlcNAc(b1-3)[Fuc(a1-2)[GalNAc(a1-3)]Gal(b1-4)GlcNAc(b1-6)]GalNAc
Method in brief: as §1

B1: GST-Gap1 (Streptococcus parasanguinis), A1C3L5 (protein)
chain: MFYFVPSWYNGQRQWYYDTPWWFRVKNRMTFDDSVNQVKMFLQGQEEIGLMILNYQPQLRYFLHKQNIFGIYYWSFFDDIQNITRSYTKIIHLKDLNWPEGCEFLYSPFAVVVRLKGEIFAIVNYAEDGNLHSVSFQKNGKVTKDYIFDDRGFLSSILYYDIDERPLYQDYLNINGVWQVREFLKKENDPTPILMINDFSDQTFSKKYYNGWEELIKERLAIFQNNHVENEDVFVLASDTQHNQLVSSIFKEHRKIYSFFGNRFNLENLGQDRISINDATFLVVDTEKNEELLRKTCENLVFKSIPIVRLSPFDSRLRLGHSQTVKEQIIYFHIDNIELDELYSVIAIILELMTLHLDIELRIVTFRQDFQLDLLKTWIIDFIKTNHFEDLLFKQISEGENEIEDEGEIELSRIAMECFTNENQIIKCLDTARLVIDLGIEPDLYTQIASISAGIPQINRVSSDYVIHQKNGLVISDISKLSSAIEFYFDGLFNWNEALIYAVRKMSDYTSGKILKQWKGMLKKK
glycan array binding signal (z-score) [1]: -1.19
glycan array binding signal (z-score) [2]: -0.284
glycan array binding signal (z-score) [3]: -0.454
glycan array binding signal (z-score) [4]: -0.05
glycan array binding signal (z-score) [5]: -0.478
glycan array binding signal (z-score) [6]: -0.111
glycan array binding signal (z-score) [7]: -0.867
glycan array binding signal (z-score) [8]: 1.04
glycan array binding signal (z-score) [9]: -0.203
glycan array binding signal (z-score) [10]: -0.065
glycan array binding signal (z-score) [11]: 0.117
glycan array binding signal (z-score) [12]: -0.784
glycan array binding signal (z-score) [13]: 0.497
glycan array binding signal (z-score) [14]: -0.403
glycan array binding signal (z-score) [15]: -0.423
glycan array binding signal (z-score) [16]: 0.018
glycan array binding signal (z-score) [17]: 0.637
glycan array binding signal (z-score) [18]: -0.372
glycan array binding signal (z-score) [19]: -0.842
glycan array binding signal (z-score) [20]: -0.497
glycan array binding signal (z-score) [21]: -0.599
glycan array binding signal (z-score) [22]: -0.272
glycan array binding signal (z-score) [23]: -0.587
glycan array binding signal (z-score) [24]: -0.694
glycan array binding signal (z-score) [25]: -0.123
glycan array binding signal (z-score) [26]: 1.1
glycan array binding signal (z-score) [27]: -0.25
glycan array binding signal (z-score) [28]: -0.457
glycan array binding signal (z-score) [29]: 0.385
glycan array binding signal (z-score) [30]: -0.282
